In PubChem BioAssay AID1347075 (National Center for Advancing Translational Sciences (NCATS), 2019):
Where “and” joins values, the source holds several entries; their conditions need not be identical. Identical values can stand only once. The campaign covered roughly 400,000 compounds. About 5,500 (1.4%) were called active. Inconclusive means that the source gave no clear call. Such entries were picked first, then a sample of the others. Calls come from the whole dose curve; as a rule, active = well fitted cell-killing curve with a large enough effect; inconclusive = small, poorly fitted or top-dose-only effect, or effect the other way; inactive = flat fitted curve, though single readings scatter. Potencies of inconclusive entries are doubtful fits and often do not repeat.

experiment: qHTS assay for MDR1-selective chemotherapeutics: Primary screen using the parental adenocarcinoma cell KB-3-1; settings: KB-3-1 viability, CellTiter-Glo ATP luminescence, 72 h; activity change, negative = cytotoxic: at 46.1 µM (top of the series); note: nearly all actives have a fitted effect of over 60% in size
Outline: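 Using CellTiter-Glo luminescence, growth of non-resistant KB-3-1 adenocarcinoma cells is assessed 72 h after pin-tool compound addition at 37 °C. Normalized responses across the concentration series yield fitted curves.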
% is set by controls: 0 for no effect and ±100 for the full control effect; potency is the fitted concentration of half-maximal effect.

Structure (SMILES) | Potency | activity change, negative = cytotoxic
O=C(Nc1ccc2nc3n(c(=O)c2c1)CCCCC3)c1cccc(C(F)(F)F)c1 | inconclusive: 8.2 µM [cytotoxic, partial curve, poor fit] | 
CCN1C(=O)/C(=C\c2nc3ccccc3c(=O)n2-c2ccccc2)c2ccccc21 | inconclusive: 29.1 µM [cytotoxic, single point] | 
C#CCSc1nnnn1-c1cccc(Cl)c1 | inconclusive: 16.4 µM [cytotoxic, partial curve, poor fit] | 
CC1CN(S(=O)(=O)c2ccc(F)cc2)C(C)N1C(=O)N1CCOCC1 (stereo not drawn) |  | inactive: 3.39%
O=C(c1ccc(Br)cc1)c1sc(N2CCOCC2)nc1-c1ccccc1 | inconclusive: 29.1 µM [cytotoxic, single point] | 
CCc1ccc(/C=C2\SC(=S)N(CCCC(=O)N(CCO)c3ccccc3)C2=O)cc1 | inconclusive: 29.1 µM [cytotoxic, partial curve, poor fit] | 
Cc1ccccc1NC(=O)COC(=O)c1ccc(S(C)(=O)=O)c([N+](=O)[O-])c1 | active: 20.6 µM and inconclusive: 29.1 µM [cytotoxic, single point] | 
Cc1ccc2nc(-c3ccc(-c4ccccn4)s3)cn2c1 |  | inactive: 5.53%
COc1cccc(CSc2nc3ccncc3[nH]2)c1 |  | inconclusive: -24.9%
Cn1nnnc1Sc1ncnc2scc(-c3ccsc3)c12 | inconclusive: 25.9 µM [cytotoxic, single point] | 
c1ccc2c(c1)-c1cccc3cncc-2c13 |  | inactive: 0.464%
Cc1ccc(C(=O)N2CCN(c3cccc(C)c3C)CC2)cc1S(=O)(=O)N1CCOCC1 | inconclusive: 29.1 µM [cytotoxic, single point] | 
O=C(c1cnc(N2CCN(c3ccccn3)CC2)c2ccccc12)N1CCN(c2cccc(Cl)c2)CC1 | inconclusive: 23.1 µM [cytotoxic, single point] | 
COc1ccccc1Nc1ncnc2scc(-c3ccc(F)cc3)c12 | inconclusive: 3.66 µM [cytotoxic, partial curve] | 
CCOCCCNC(=O)/C(C#N)=C/c1ccc(Cl)c([N+](=O)[O-])c1 | inconclusive: 29.1 µM [cytotoxic, single point] | 
COc1cc(/C=C2\CCc3ccccc3C2=O)cc(OC)c1OC | inconclusive: 32.6 µM [cytotoxic, single point] | 
O=C(Nc1nnc([C@H]2C[C@H](O)[C@@H](CO)O2)s1)Nc1ccccc1F |  | inactive: 10.4%
Cc1cc2cc(CN(CC3CCCO3)C(=S)Nc3ccccc3)c(=O)[nH]c2cc1C (stereo not drawn) | active: 7.31 µM | 
